The target of this assay is 6x-His full-length CED-4S, wild type (C. elegans). As to the kind of experiment: pull-down; GST-CED-9[1-251] and 6x-His CED-4S coexpressed in E. coli BL21(DE3); lysate normalised to CED-4 bound to Ni-NTA resin, 4°C, 2 hours; 25 mM Tris pH 8.0, 300 mM NaCl, 2 mM DTT, 25 mM imidazole wash; Western blot with anti-His and anti-GST; the results call it coimmunoprecipitation. Background: In western blotting, separated proteins are transferred to a membrane and probed.

No constants are given. Whether binding was seen depends on the method and setting. Binding seen in cells or lysates may run through a third protein. Binding can be weak; no strength is given. Tags and fused reporters may be left off the sequences shown.

B1: GST-CED-9[1-251], wild type (domain or fragment, UniProt P41958 1-251)
chain: MTRCTADNSLTNPAYRRRTMATGEMKEFLGIKGTEPTDFGINSDAQDLPSPSRQASTRRMSIGESIDGKINDWEEPRLDIEGFVVDYFTHRIRQNGMEWFGAPGLPCGVQPEHEMMRVMGTIFEKKHAENFETFCEQLLAVPRISFSLYQDVVRTVGNAQTDQCPMSYGRLIGLISFGGFVAAKMMESVELQGQVRNLFVYTSLFIKTRIRNNWKEHNRSWDDFMTLGKQMKEDYERAEAEKVGRRKQNRR
Turning to B1, the binding entry was “binds”.

The values above are taken from PMC11817491.
